Reference: the supplement of paper PMC10849652
The list shows a part of the results.

By UniProt entry, the sequences of proteins in these tests, tags left out. Where a name states a change or a piece, a line headed by the entry shows the natural chain unless it says otherwise.
UniProt Q00169: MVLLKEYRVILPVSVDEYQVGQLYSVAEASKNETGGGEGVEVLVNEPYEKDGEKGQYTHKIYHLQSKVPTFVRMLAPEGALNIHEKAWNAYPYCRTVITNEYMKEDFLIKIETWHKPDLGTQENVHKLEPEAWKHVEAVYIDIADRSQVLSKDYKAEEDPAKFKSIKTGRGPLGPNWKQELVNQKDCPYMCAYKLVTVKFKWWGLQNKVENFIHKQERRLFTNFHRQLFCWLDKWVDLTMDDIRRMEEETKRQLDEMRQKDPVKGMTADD
UniProt Q99755: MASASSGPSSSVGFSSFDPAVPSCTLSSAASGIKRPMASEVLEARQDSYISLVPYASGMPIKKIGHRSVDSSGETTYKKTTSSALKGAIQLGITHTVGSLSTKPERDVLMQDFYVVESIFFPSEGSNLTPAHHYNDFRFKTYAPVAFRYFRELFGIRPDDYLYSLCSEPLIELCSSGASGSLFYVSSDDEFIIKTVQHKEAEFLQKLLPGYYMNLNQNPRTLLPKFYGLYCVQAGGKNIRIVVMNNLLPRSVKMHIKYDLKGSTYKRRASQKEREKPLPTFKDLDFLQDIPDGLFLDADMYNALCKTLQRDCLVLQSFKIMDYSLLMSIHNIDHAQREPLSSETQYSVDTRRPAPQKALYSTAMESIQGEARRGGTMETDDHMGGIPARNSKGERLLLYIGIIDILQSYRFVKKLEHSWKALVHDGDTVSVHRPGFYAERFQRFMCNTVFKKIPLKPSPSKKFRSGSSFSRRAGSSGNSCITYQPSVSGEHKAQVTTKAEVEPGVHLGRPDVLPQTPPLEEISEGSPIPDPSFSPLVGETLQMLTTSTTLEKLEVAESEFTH
UniProt O00459, whole entry, looked up: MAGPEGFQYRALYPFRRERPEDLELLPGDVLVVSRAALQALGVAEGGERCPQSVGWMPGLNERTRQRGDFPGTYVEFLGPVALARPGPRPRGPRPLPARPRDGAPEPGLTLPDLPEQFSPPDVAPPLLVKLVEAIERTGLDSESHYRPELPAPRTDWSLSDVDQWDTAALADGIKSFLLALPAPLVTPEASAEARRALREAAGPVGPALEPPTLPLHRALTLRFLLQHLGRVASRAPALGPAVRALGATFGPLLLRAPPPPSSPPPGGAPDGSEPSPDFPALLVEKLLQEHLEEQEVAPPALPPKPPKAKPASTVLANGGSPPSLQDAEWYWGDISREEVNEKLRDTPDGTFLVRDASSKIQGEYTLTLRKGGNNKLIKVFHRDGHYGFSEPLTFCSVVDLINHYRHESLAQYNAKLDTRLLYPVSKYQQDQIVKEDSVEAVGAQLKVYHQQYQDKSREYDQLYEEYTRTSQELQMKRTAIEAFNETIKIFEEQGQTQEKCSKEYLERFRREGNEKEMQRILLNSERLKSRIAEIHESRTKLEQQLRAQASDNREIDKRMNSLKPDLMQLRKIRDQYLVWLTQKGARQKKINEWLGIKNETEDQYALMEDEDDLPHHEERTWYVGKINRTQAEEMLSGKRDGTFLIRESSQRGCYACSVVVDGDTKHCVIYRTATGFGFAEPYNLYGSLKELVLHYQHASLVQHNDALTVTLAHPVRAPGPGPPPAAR
UniProt P35232: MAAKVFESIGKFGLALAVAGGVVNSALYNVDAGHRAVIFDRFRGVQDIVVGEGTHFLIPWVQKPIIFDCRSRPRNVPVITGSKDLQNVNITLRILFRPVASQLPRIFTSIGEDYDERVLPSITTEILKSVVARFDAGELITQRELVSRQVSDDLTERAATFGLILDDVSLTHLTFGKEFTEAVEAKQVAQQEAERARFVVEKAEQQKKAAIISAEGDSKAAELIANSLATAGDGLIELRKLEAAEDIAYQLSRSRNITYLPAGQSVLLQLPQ
UniProt Q9Y237, whole entry, looked up: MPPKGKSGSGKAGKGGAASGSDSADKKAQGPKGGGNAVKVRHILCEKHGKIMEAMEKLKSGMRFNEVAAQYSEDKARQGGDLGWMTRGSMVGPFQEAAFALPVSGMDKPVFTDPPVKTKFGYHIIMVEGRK
UniProt Q13608: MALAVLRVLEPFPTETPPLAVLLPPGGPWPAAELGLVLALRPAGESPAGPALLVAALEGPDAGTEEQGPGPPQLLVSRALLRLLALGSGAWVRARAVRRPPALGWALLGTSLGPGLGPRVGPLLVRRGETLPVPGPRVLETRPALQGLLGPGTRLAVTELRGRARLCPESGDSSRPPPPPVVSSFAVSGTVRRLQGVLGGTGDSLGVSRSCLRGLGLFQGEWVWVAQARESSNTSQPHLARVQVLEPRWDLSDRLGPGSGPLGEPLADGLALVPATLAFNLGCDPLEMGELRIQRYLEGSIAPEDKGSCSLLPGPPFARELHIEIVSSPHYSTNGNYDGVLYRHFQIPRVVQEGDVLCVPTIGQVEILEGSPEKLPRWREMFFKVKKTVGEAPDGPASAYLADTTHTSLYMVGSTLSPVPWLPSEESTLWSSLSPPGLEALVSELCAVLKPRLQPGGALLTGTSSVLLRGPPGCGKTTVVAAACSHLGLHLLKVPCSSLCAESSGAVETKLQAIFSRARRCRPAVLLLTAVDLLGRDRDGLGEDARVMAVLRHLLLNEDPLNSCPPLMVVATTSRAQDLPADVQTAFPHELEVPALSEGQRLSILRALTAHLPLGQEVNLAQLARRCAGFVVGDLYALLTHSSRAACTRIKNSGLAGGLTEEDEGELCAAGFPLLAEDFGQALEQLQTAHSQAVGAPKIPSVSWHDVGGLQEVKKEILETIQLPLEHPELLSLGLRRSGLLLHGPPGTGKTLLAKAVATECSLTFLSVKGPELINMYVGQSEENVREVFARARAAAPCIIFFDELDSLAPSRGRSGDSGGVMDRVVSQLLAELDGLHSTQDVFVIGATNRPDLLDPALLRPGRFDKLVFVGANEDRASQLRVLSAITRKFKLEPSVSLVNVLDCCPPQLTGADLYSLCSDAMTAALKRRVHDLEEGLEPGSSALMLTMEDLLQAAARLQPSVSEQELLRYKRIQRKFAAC
UniProt Q96G03: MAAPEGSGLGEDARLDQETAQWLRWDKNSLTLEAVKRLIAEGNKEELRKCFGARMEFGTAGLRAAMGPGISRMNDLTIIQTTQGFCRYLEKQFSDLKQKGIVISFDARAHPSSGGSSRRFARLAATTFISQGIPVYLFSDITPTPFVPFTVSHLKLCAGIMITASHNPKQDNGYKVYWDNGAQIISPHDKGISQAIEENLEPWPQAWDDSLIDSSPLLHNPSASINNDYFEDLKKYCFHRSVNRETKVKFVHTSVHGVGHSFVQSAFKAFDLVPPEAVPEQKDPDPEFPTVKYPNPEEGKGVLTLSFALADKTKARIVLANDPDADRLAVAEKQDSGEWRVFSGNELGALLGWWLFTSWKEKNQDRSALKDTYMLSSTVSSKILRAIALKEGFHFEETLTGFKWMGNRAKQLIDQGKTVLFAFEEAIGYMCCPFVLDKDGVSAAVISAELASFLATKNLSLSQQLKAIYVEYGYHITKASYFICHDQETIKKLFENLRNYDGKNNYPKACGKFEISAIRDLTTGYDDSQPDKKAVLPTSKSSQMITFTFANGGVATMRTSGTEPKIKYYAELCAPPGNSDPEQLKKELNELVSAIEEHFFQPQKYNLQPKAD
UniProt Q13492: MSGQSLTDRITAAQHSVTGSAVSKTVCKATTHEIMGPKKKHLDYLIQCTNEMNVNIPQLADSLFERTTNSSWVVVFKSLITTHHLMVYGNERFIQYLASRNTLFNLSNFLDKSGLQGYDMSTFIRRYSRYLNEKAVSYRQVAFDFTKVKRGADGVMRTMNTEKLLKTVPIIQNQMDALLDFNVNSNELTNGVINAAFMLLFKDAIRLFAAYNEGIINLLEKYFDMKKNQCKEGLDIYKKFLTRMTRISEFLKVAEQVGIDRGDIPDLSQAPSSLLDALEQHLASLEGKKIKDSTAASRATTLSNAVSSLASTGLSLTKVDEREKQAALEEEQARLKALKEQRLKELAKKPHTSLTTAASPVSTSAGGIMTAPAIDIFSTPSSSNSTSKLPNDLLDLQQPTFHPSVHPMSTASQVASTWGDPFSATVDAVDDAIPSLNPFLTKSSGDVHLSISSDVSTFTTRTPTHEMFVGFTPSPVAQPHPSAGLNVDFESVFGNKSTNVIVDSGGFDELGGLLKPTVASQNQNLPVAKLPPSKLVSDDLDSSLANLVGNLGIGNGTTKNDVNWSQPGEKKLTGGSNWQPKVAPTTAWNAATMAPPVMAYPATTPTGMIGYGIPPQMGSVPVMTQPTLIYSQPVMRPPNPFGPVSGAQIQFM
UniProt P51178: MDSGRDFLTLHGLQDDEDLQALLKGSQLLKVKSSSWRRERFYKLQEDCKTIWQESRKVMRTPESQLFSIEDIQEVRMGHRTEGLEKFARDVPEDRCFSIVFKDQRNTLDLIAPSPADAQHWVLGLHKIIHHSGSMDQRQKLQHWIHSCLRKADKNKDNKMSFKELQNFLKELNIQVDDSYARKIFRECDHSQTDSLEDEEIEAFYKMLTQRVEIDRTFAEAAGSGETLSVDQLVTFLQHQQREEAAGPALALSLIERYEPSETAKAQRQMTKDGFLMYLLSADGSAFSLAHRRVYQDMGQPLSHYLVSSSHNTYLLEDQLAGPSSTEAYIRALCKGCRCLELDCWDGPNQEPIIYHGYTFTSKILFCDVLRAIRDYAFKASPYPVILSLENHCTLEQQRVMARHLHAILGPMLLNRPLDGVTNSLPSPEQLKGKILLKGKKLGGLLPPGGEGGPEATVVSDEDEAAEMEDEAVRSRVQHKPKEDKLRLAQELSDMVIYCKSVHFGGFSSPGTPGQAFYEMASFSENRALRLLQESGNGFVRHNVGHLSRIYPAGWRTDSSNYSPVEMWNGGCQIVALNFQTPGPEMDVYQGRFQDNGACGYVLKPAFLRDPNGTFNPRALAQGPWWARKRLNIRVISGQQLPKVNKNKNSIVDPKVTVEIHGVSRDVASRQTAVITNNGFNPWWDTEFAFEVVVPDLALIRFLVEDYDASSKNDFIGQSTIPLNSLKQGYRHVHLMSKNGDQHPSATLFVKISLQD
UniProt Q99570, whole entry, looked up: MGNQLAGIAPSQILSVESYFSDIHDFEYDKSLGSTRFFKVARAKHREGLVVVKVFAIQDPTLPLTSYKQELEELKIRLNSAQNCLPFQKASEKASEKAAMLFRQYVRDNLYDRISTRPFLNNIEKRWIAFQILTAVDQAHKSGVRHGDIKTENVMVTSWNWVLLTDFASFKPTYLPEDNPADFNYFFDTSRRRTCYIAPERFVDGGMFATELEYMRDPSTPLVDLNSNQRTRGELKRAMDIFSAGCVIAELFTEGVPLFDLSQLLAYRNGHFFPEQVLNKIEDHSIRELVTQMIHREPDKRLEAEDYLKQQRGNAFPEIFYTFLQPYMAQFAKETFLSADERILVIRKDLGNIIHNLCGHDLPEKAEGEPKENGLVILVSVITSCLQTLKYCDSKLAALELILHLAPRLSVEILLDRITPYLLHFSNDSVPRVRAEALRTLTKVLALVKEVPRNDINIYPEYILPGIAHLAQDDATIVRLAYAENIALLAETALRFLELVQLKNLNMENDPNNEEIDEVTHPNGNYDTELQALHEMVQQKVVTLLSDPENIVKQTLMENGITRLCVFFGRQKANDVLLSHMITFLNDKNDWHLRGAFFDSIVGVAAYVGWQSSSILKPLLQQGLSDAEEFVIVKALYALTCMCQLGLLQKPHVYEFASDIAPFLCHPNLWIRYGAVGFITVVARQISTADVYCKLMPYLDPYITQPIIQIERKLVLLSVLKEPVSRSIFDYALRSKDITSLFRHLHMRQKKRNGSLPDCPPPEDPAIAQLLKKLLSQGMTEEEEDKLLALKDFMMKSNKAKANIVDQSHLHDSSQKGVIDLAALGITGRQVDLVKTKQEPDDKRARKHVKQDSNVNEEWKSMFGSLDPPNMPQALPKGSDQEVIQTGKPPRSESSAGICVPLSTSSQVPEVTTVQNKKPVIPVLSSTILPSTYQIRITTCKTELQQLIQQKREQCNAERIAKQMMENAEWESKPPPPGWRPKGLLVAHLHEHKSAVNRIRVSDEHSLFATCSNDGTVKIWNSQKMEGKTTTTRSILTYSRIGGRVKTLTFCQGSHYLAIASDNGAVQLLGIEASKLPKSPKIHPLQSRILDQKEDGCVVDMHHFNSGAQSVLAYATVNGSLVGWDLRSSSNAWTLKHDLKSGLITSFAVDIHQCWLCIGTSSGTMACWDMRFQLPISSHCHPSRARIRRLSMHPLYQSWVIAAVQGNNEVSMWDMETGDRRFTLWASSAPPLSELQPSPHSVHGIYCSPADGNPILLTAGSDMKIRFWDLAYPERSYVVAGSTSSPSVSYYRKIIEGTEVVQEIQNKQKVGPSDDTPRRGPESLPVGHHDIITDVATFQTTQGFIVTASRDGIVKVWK
UniProt O00264: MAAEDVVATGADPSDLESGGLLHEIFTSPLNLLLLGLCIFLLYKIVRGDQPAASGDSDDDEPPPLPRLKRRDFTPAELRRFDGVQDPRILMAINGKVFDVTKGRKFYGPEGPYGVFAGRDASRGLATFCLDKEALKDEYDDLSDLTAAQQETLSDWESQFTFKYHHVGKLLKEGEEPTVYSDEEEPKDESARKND

Legend:
Assay in all cases: log2 fold change, soluble protein after heating vs DMSO (PISA); higher = thermal stabilisation; K562 cells, 10 uM, 30 min; active = over 0.2 and 3.5 SD of the protein, either way, in both replicates (recomputed)
[1] = compound: CS(=O)(=O)c1ccc(-c2cnc(N)c(C(=O)Nc3ccccc3)n2)cc1
How it was run: (§1)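 Aliquots of K562 cells (2×10^6 cells/mL) treated with 10 μM compound for 30 min were heated for 3 min over 48°C-58°C. After pooling and extraction in PBS with 0.5% NP-40 at 4°C, soluble protein from a 21,000xg, 90 min spin was quantified by TMTpro 16plex LC-MS/MS with channel sums equalised. Thermal stability is expressed against control samples, from duplicates, as a log2 fold change.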

crizotinib = compound: C[C@@H](Oc1cc(-c2cnn(C3CCNCC3)c2)cnc1N)c1c(Cl)ccc(F)c1Cl [crizotinib]
How it was run: as §1

[2] = compound: C[C@@H]1COCCN1C2=NC(=NC(=C2)C3(CC3)S(=O)(=O)C)C4=C5C=CNC5=CC=C4
How it was run: as §1

[3] = compound: C[C@H](C1=CC=C(C=C1)C(=O)NC2=C3C=CNC3=NC=C2)N
How it was run: as §1

duvelisib = compound: C[C@H](Nc1ncnc2nc[nH]c12)c1cc2cccc(Cl)c2c(=O)n1-c1ccccc1 [duvelisib]
How it was run: as §1

gandotinib = compound: Cc1cc(Nc2cc(CN3CCOCC3)c3nc(C)c(Cc4ccc(Cl)cc4F)n3n2)n[nH]1 [gandotinib]
How it was run: as §1

tozasertib = compound: Cc1cc(Nc2cc(N3CCN(C)CC3)nc(Sc3ccc(NC(=O)C4CC4)cc3)n2)n[nH]1 [tozasertib]
How it was run: as §1

[4] = compound: Cc1cc(SCc2sc(-c3ccc(C(F)(F)F)cc3)nc2C)ccc1OCC(=O)O
How it was run: as §1

doramapimod = compound: Cc1ccc(-n2nc(C(C)(C)C)cc2NC(=O)Nc2ccc(OCCN3CCOCC3)c3ccccc23)cc1 [doramapimod]
How it was run: as §1

ispinesib = compound: Cc1ccc(C(=O)N(CCCN)[C@@H](c2nc3cc(Cl)ccc3c(=O)n2Cc2ccccc2)C(C)C)cc1 [ispinesib]
How it was run: as §1

bafetinib = compound: Cc1ccc(NC(=O)c2ccc(CN3CC[C@H](N(C)C)C3)c(C(F)(F)F)c2)cc1Nc1nccc(-c2cncnc2)n1 [bafetinib]
How it was run: as §1

[5] = compound: Cc1cccc(CC(=O)N2CCc3c2ccc(-c2cn(C)c4ncnc(N)c24)c3F)n1
How it was run: as §1

nilotinib = compound: Cc1cn(-c2cc(NC(=O)c3ccc(C)c(Nc4nccc(-c5cccnc5)n4)c3)cc(C(F)(F)F)c2)cn1 [nilotinib]
How it was run: as §1

[6] = compound: Cc1nc(Nc2n[nH]c3c2CN(C(=O)N[C@H](CN(C)C)c2ccccc2)C3(C)C)c2sccc2n1
How it was run: as §1

dasatinib = compound: Cc1nc(Nc2ncc(C(=O)Nc3c(C)cccc3Cl)s2)cc(N2CCN(CCO)CC2)n1 [dasatinib]
How it was run: as §1

[7] = compound: Cc1ncc(-c2ccnc(Nc3ccc(S(C)(=O)=O)cc3)n2)n1C(C)C
How it was run: as §1

[8] = compound: Cn1cc(-c2ccc3c(c2)CCN3C(=O)Cc2cccc(C(F)(F)F)c2)c2c(N)ncnc21
How it was run: as §1

[9] = compound: Cn1cc(-c2ccc3nnc(C(F)(F)c4ccc5ncccc5c4)n3n2)cn1
How it was run: as §1

tipifarnib = compound: Cn1cncc1[C@@](N)(c1ccc(Cl)cc1)c1ccc2c(c1)c(-c1cccc(Cl)c1)cc(=O)n2C [tipifarnib]
How it was run: as §1

mubritinib = compound: FC(F)(F)c1ccc(/C=C/c2nc(COc3ccc(CCCCn4ccnn4)cc3)co2)cc1 [mubritinib]
How it was run: as §1

Measured: log2 fold change

PHB2 (UniProt Q99623)
inactive: [1] -0.01 | crizotinib 0.031 | [2] 0.003 | [3] -0.029 | duvelisib 0 | gandotinib -0.021 | tozasertib -0.002 | [4] -0.026 | doramapimod -0.003 | ispinesib -0.013 | bafetinib -0.02 | [5] -0.006 | nilotinib -0.017 | [6] 0.025 | dasatinib 0.015 | [7] -0.021 | [8] 0.002 | [9] 0.019 | tipifarnib 0.051 | mubritinib 0.016

PITPNA (UniProt Q00169)
inactive: [1] 0.027 | crizotinib 0.042 | [2] 0.002 | [3] -0.042 | duvelisib 0.034 | gandotinib 0.018 | tozasertib 0.001 | [4] -0.012 | doramapimod -0.055 | ispinesib 0.107 | bafetinib 0.001 | [5] -0.051 | nilotinib -0.002 | [6] 0.026 | dasatinib 0.034 | [7] 0.004 | [8] 0.02 | [9] 0.033 | tipifarnib -0.003 | mubritinib 0.007

PIP5K1A (UniProt Q99755)
inactive: [1] -0.049 | crizotinib -0.024 | [2] -0.084 | [3] 0.077 | duvelisib -0.051 | gandotinib 0.096 | tozasertib 0.095 | [4] -0.049 | doramapimod 0.097 | ispinesib -0.351 | bafetinib 0 | [5] -0.042 | nilotinib -0.271 | [6] -0.04 | dasatinib 0.027 | [7] -0.231 | [8] -0.266 | [9] -0.11 | tipifarnib 0.047 | mubritinib -0.14

PHACTR2 isoform 4 (UniProt O75167)
inactive: [1] -0.004 | crizotinib -0.017 | [2] 0.201 | [3] 0.047 | duvelisib -0.015 | gandotinib 0.079 | tozasertib -0.027 | [4] -0.087 | doramapimod 0.004 | ispinesib 0.065 | bafetinib -0.065 | [5] 0.015 | nilotinib 0.31 | [6] 0.042 | dasatinib 0.178 | [7] -0.119 | [8] -0.033 | [9] 0.068 | tipifarnib 0.049 | mubritinib 0.163

PIK3R2 (UniProt O00459)
inactive: [1] 0.042 | crizotinib -0.039 | [2] 0.218 | [3] 0.018 | duvelisib 0.1 | gandotinib -0.01 | tozasertib -0.047 | [4] 0.017 | doramapimod -0.004 | ispinesib -0.111 | bafetinib 0.095 | [5] -0.007 | nilotinib -0.1 | [6] -0.177 | dasatinib -0.094 | [7] -0.089 | [8] -0.068 | [9] 0.027 | tipifarnib 0.028 | mubritinib -0.025

PIEZO1 (UniProt Q92508)
inactive: [1] 0.08 | crizotinib 0.069 | [2] -0.028 | [3] -0.025 | duvelisib -0.027 | gandotinib 0.086 | tozasertib -0.018 | [4] 0.001 | doramapimod 0.03 | ispinesib 0.024 | bafetinib -0.016 | [5] -0.115 | nilotinib -0.009 | [6] 0.115 | dasatinib 0.013 | [7] 0.023 | [8] 0.016 | [9] -0.024 | tipifarnib 0.05 | mubritinib 0.024

PFKFB4 (UniProt Q16877)
inactive: [1] 0.063 | crizotinib -0.014 | [2] -0.02 | [3] 0.002 | duvelisib 0.049 | gandotinib -0.079 | tozasertib -0.074 | [4] 0.012 | doramapimod 0.061 | ispinesib -0.023 | bafetinib -0.151 | [5] 0.082 | nilotinib -0.097 | [6] 0.024 | dasatinib -0.084 | [7] -0.02 | [8] 0.005 | [9] -0.002 | tipifarnib -0.032 | mubritinib -0.014

Looked up one by one from the list above, two records:
PHB2 (UniProt Q99623)
inactive: [1] -0.01 | crizotinib 0.031 | [2] 0.003 | [3] -0.029 | duvelisib 0 | gandotinib -0.021 | tozasertib -0.002 | [4] -0.026 | doramapimod -0.003 | ispinesib -0.013 | bafetinib -0.02 | [5] -0.006 | nilotinib -0.017 | [6] 0.025 | dasatinib 0.015 | [7] -0.021 | [8] 0.002 | [9] 0.019 | tipifarnib 0.051 | mubritinib 0.016

PFKFB4 (UniProt Q16877)
inactive: [1] 0.063 | crizotinib -0.014 | [2] -0.02 | [3] 0.002 | duvelisib 0.049 | gandotinib -0.079 | tozasertib -0.074 | [4] 0.012 | doramapimod 0.061 | ispinesib -0.023 | bafetinib -0.151 | [5] 0.082 | nilotinib -0.097 | [6] 0.024 | dasatinib -0.084 | [7] -0.02 | [8] 0.005 | [9] -0.002 | tipifarnib -0.032 | mubritinib -0.014

Following part

PHB (UniProt P35232)
inactive: [1] 0.031 | crizotinib 0.089 | [2] 0.055 | [3] -0.115 | duvelisib 0.025 | gandotinib -0.027 | tozasertib 0.015 | [4] -0.011 | doramapimod -0.009 | ispinesib 0.02 | bafetinib -0.041 | [5] -0.012 | nilotinib -0.039 | [6] -0.004 | dasatinib 0.075 | [7] -0.036 | [8] 0.032 | [9] 0.05 | tipifarnib 0.034 | mubritinib 0.016

PIN4 isoform 2 (UniProt Q9Y237)
inactive: [1] 0.04 | crizotinib 0.008 | [2] 0.04 | [3] -0.053 | duvelisib 0.053 | gandotinib 0.002 | tozasertib 0.011 | [4] 0.011 | doramapimod -0.028 | ispinesib 0.082 | bafetinib 0.004 | [5] -0.019 | nilotinib -0.025 | [6] -0.028 | dasatinib -0.01 | [7] 0.006 | [8] 0.01 | [9] 0.042 | tipifarnib -0.022 | mubritinib 0.016

PGAM4 (UniProt Q8N0Y7)
inactive: [1] 0.018 | crizotinib -0.018 | [2] 0.04 | [3] -0.057 | duvelisib 0.033 | gandotinib 0.021 | tozasertib -0.006 | [4] -0.071 | doramapimod -0.01 | ispinesib 0 | bafetinib -0.044 | [5] -0.05 | nilotinib 0.02 | [6] -0.003 | dasatinib 0.058 | [7] -0.033 | [8] 0.042 | [9] 0.008 | tipifarnib 0.028 | mubritinib 0.037

PEX6 (UniProt Q13608)
inactive: [1] 0.102 | crizotinib 0.053 | [2] 0.038 | [3] 0.041 | duvelisib 0.02 | gandotinib -0.001 | tozasertib 0.005 | [4] 0.049 | doramapimod -0.007 | ispinesib 0.05 | bafetinib -0.034 | [5] 0.002 | nilotinib -0.063 | [6] -0.004 | dasatinib -0.023 | [7] 0.016 | [8] -0.055 | [9] 0.033 | tipifarnib 0.037 | mubritinib 0.089

PGM2 (UniProt Q96G03)
inactive: [1] 0.006 | crizotinib 0.032 | [2] 0.056 | [3] -0.078 | duvelisib 0 | gandotinib -0.029 | tozasertib -0.013 | [4] -0.041 | doramapimod 0 | ispinesib 0.028 | bafetinib -0.022 | [5] 0.018 | nilotinib -0.017 | [6] 0.003 | dasatinib 0.075 | [7] -0.014 | [8] 0.017 | [9] -0.005 | tipifarnib 0.022 | mubritinib 0.016

PICALM (UniProt Q13492)
inactive: [1] 0.047 | crizotinib -0.003 | [2] 0.061 | [3] -0.048 | duvelisib 0.031 | gandotinib -0.066 | tozasertib -0.038 | [4] -0.05 | doramapimod -0.017 | ispinesib -0.011 | bafetinib -0.052 | [5] 0.013 | nilotinib -0.046 | [6] -0.015 | dasatinib -0.033 | [7] -0.016 | [8] 0.053 | [9] -0.037 | tipifarnib -0.02 | mubritinib 0.032

PLCD1 isoform 2 (UniProt P51178)
inactive: [1] -0.022 | crizotinib -0.169 | [2] 0.068 | [3] -0.017 | duvelisib 0.054 | gandotinib -0.064 | tozasertib -0.055 | [4] 0.05 | doramapimod 0.041 | ispinesib -0.11 | bafetinib -0.02 | [5] 0.038 | nilotinib -0.039 | [6] -0.063 | dasatinib -0.091 | [7] -0.017 | [8] 0.087 | [9] 0.009 | tipifarnib -0.052 | mubritinib 0.135

PIK3R4 (UniProt Q99570)
inactive: [1] 0.166 | crizotinib -0.053 | [2] 0.034 | [3] 0.008 | duvelisib 0.203 | gandotinib 0.058 | tozasertib 0.001 | [4] 0.002 | doramapimod 0.04 | ispinesib -0.024 | bafetinib 0.055 | [5] -0.065 | nilotinib -0.021 | [6] -0.043 | dasatinib -0.037 | [7] 0.186 | [8] 0.021 | [9] 0.041 | tipifarnib 0.012 | mubritinib 0.036

PGRMC1 (UniProt O00264)
inactive: [1] -0.029 | crizotinib 0.1 | [2] -0.065 | [3] -0.017 | duvelisib -0.011 | gandotinib 0 | tozasertib -0.003 | [4] -0.041 | doramapimod -0.034 | ispinesib 0.143 | bafetinib -0.068 | [5] -0.018 | nilotinib 0.012 | [6] -0.023 | dasatinib 0.023 | [7] -0.029 | [8] -0.016 | [9] 0.05 | tipifarnib -0.023 | mubritinib 0.035
